The supplement of paper PMC7661543
Differences between knockout arms are mostly noise.

Tested on: HCC-38
Assay: relative cell number vs DMSO control (72 h) (% of DMSO); higher = less growth inhibition (more cells)
Experimental: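 QMAP-Seq: a pool of 5 breast cancer cell lines (ZR-75-1, SKBR3, HCC-38, MDA-MB-231, BT-20), each carrying 12 doxycycline-inducible Cas9 sgRNA perturbations (11 knockouts plus non-targeting sgNT), was treated with compounds for 72 h at four 10-fold doses (10 nM-10 uM or 1 nM-1 uM range). Barcodes were amplified and sequenced, and cell number was interpolated from 293T spike-in standard curves. The result is expressed as % of the median of DMSO wells. Two biological replicates.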

OCc1ccc(-c2ccc(-c3ccc(CO)s3)o2)s1
Conditions | relative cell number
sgRNA knockout: sgATF3, 10 nM | 137
sgRNA knockout: sgATF3, 100 nM | 120
sgRNA knockout: sgATF3, 1000 nM | 122
sgRNA knockout: sgATF3, 10000 nM | 65.5
sgRNA knockout: sgATF4, 10 nM | 131
sgRNA knockout: sgATF4, 100 nM | 120
sgRNA knockout: sgATF4, 1000 nM | 113
sgRNA knockout: sgATF4, 10000 nM | 69.6
sgRNA knockout: sgATF6, 10 nM | 163
sgRNA knockout: sgATF6, 100 nM | 129
sgRNA knockout: sgATF6, 1000 nM | 135
sgRNA knockout: sgATF6, 10000 nM | 65.3
sgRNA knockout: sgATG7, 10 nM | 123
sgRNA knockout: sgATG7, 100 nM | 119
sgRNA knockout: sgATG7, 1000 nM | 123
sgRNA knockout: sgATG7, 10000 nM | 66.7
sgRNA knockout: sgERN1, 10 nM | 129
sgRNA knockout: sgERN1, 100 nM | 116
sgRNA knockout: sgERN1, 1000 nM | 112
sgRNA knockout: sgERN1, 10000 nM | 66.3
sgRNA knockout: sgHSF1, 10 nM | 167
sgRNA knockout: sgHSF1, 100 nM | 128
sgRNA knockout: sgHSF1, 1000 nM | 117
sgRNA knockout: sgHSF1, 10000 nM | 58.6
sgRNA knockout: sgHSF2, 10 nM | 135
sgRNA knockout: sgHSF2, 100 nM | 125
sgRNA knockout: sgHSF2, 1000 nM | 106
sgRNA knockout: sgHSF2, 10000 nM | 70.4
sgRNA knockout: sgKEAP1, 10 nM | 198
sgRNA knockout: sgKEAP1, 100 nM | 120
sgRNA knockout: sgKEAP1, 1000 nM | 137
sgRNA knockout: sgKEAP1, 10000 nM | 67.5
sgRNA knockout: sgNFE2L2, 10 nM | 121
sgRNA knockout: sgNFE2L2, 100 nM | 122
sgRNA knockout: sgNFE2L2, 1000 nM | 114
sgRNA knockout: sgNFE2L2, 10000 nM | 66.4
sgRNA knockout: sgSLC35F2, 10 nM | 131
sgRNA knockout: sgSLC35F2, 100 nM | 114
sgRNA knockout: sgSLC35F2, 1000 nM | 112
sgRNA knockout: sgSLC35F2, 10000 nM | 65.6
sgRNA knockout: sgXBP1, 10 nM | 122
sgRNA knockout: sgXBP1, 100 nM | 118
sgRNA knockout: sgXBP1, 1000 nM | 110
sgRNA knockout: sgXBP1, 10000 nM | 61

CC/C(=C(\c1ccc(O)cc1)c1ccc(OCCN(C)C)cc1)c1ccccc1 [4-Hydroxytamoxifen]
Conditions | relative cell number
sgRNA knockout: sgATF3, 10 nM | 90.2
sgRNA knockout: sgATF3, 100 nM | 91.3
sgRNA knockout: sgATF3, 1000 nM | 88.1
sgRNA knockout: sgATF3, 10000 nM | 76.5
sgRNA knockout: sgATF4, 10 nM | 93.3
sgRNA knockout: sgATF4, 100 nM | 101
sgRNA knockout: sgATF4, 1000 nM | 91.9
sgRNA knockout: sgATF4, 10000 nM | 79.7
sgRNA knockout: sgATF6, 10 nM | 97.3
sgRNA knockout: sgATF6, 100 nM | 95.5
sgRNA knockout: sgATF6, 1000 nM | 96.1
sgRNA knockout: sgATF6, 10000 nM | 69.6
sgRNA knockout: sgATG7, 10 nM | 99.6
sgRNA knockout: sgATG7, 100 nM | 98.7
sgRNA knockout: sgATG7, 1000 nM | 91.6
sgRNA knockout: sgATG7, 10000 nM | 81
sgRNA knockout: sgERN1, 10 nM | 103
sgRNA knockout: sgERN1, 100 nM | 98.3
sgRNA knockout: sgERN1, 1000 nM | 91.9
sgRNA knockout: sgERN1, 10000 nM | 83.2
sgRNA knockout: sgHSF1, 10 nM | 93.3
sgRNA knockout: sgHSF1, 100 nM | 90.9
sgRNA knockout: sgHSF1, 1000 nM | 108
sgRNA knockout: sgHSF1, 10000 nM | 81.4
sgRNA knockout: sgHSF2, 10 nM | 98.2
sgRNA knockout: sgHSF2, 100 nM | 100
sgRNA knockout: sgHSF2, 1000 nM | 91.6
sgRNA knockout: sgHSF2, 10000 nM | 82.2
sgRNA knockout: sgKEAP1, 10 nM | 106
sgRNA knockout: sgKEAP1, 100 nM | 110
sgRNA knockout: sgKEAP1, 1000 nM | 99.1
sgRNA knockout: sgKEAP1, 10000 nM | 61.3
sgRNA knockout: sgNFE2L2, 10 nM | 93.7
sgRNA knockout: sgNFE2L2, 100 nM | 92.6
sgRNA knockout: sgNFE2L2, 1000 nM | 90.8
sgRNA knockout: sgNFE2L2, 10000 nM | 78.9
sgRNA knockout: sgSLC35F2, 10 nM | 101
sgRNA knockout: sgSLC35F2, 100 nM | 94.3
sgRNA knockout: sgSLC35F2, 1000 nM | 85.7
sgRNA knockout: sgSLC35F2, 10000 nM | 83.2
sgRNA knockout: sgXBP1, 10 nM | 95.2
sgRNA knockout: sgXBP1, 100 nM | 94.2
sgRNA knockout: sgXBP1, 1000 nM | 92.3
sgRNA knockout: sgXBP1, 10000 nM | 82.6
